Source: PMC7889885
Where a chain is given by its changes, count along the chain named. Names and notes keep the numbering of the source. Results are given in words; binding and its absence hold for the method and conditions named. In cells and extracts the contact can be indirect. Some entries that bind do so weakly or less than the wild type. Where a sequence is shown, tags or fusion partners need not be part of it.

Columns and labels:
[1] = target: full-length hNKCC1 tagged with flag and YFP, F728C (human) (UniProt P55011); assay: cross-linking; oxidative cross-linking of single-cysteine mutants in HEK293 cells with 1.5 mM cupric phenanthroline in regular medium for 10-40 min before lysis; blot with T4 antibody
[2] = target: full-length hNKCC1 tagged with flag and YFP, F728C (human) (UniProt P55011); assay: cross-linking; HEK293 cells treated with 1 mM I2 in regular medium for 2 min; quenched with EDTA + N-ethyl maleimide; blot
[3] = target: full-length hNKCC1 tagged with flag and YFP, F728C (human) (UniProt P55011); assay: cross-linking; HEK293 cells treated with 200 uM MTS-3-MTS (1,3-propanediyl bismethanethiosulfonate) in regular medium for 10 min; MTSET as control; blot
[4] = target: full-length hNKCC1 tagged with flag and YFP, W733C (human) (UniProt P55011); assay: cross-linking; oxidative cross-linking of single-cysteine mutants in HEK293 cells with 1.5 mM cupric phenanthroline in regular medium for 10-40 min before lysis; blot with T4 antibody
[5] = target: full-length hNKCC1 tagged with flag and YFP, W733C (human) (UniProt P55011); assay: cross-linking; HEK293 cells treated with 1 mM I2 in regular medium for 2 min; quenched with EDTA + N-ethyl maleimide; blot
[6] = target: full-length hNKCC1 tagged with flag and YFP, W733C (human) (UniProt P55011); assay: cross-linking; HEK293 cells treated with 200 uM MTS-3-MTS (1,3-propanediyl bismethanethiosulfonate) in regular medium for 10 min; MTSET as control; blot
[7] = target: full-length hNKCC1 tagged with flag and YFP, A735C (human) (UniProt P55011); assay: cross-linking; oxidative cross-linking of single-cysteine mutants in HEK293 cells with 1.5 mM cupric phenanthroline in regular medium for 10-40 min before lysis; blot with T4 antibody
[8] = target: full-length hNKCC1 tagged with flag and YFP, A735C (human) (UniProt P55011); assay: cross-linking; HEK293 cells treated with 1 mM I2 in regular medium for 2 min; quenched with EDTA + N-ethyl maleimide; blot
[9] = target: full-length hNKCC1 tagged with flag and YFP, A735C (human) (UniProt P55011); assay: cross-linking; HEK293 cells treated with 200 uM MTS-3-MTS (1,3-propanediyl bismethanethiosulfonate) in regular medium for 10 min; MTSET as control; blot
[10] = target: full-length hNKCC1 tagged with flag and YFP, W732C in the C723S-C724V double mutation (human) (UniProt P55011); assay: cross-linking; spontaneous disulfide cross-linking of single-cysteine mutants in HEK293 cells, without cupric phenanthroline; lysate on 7.5% Tris-glycine gel, blot with T4 antibody

B1: full-length hNKCC1 tagged with flag and YFP, F728C (protein, UniProt P55011 1-1212)
chain: MEPRPTAPSSGAPGLAGVGETPSAAALAAARVELPGTAVPSVPEDAAPASRDGGGVRDEGPAAAGDGLGRPLGPTPSQSRFQVDLVSENAGRAAAAAAAAAAAAAAAGAGAGAKQTPADGEASGESEPAKGSEEAKGRFRVNFVDPAASSSAEDSLSDAAGVGVDGPNVSFQNGGDTVLSEGSSLHSGGGGGSGHHQHYYYDTHTNTYYLRTFGHNTMDAVPRIDHYRHTAAQLGEKLLRPSLAELHDELEKEPFEDGFANGEESTPTRDAVVTYTAESKGVVKFGWIKGVLVRCMLNIWGVMLFIRLSWIVGQAGIGLSVLVIMMATVVTTITGLSTSAIATNGFVRGGGAYYLISRSLGPEFGGAIGLIFAFANAVAVAMYVVGFAETVVELLKEHSILMIDEINDIRIIGAITVVILLGISVAGMEWEAKAQIVLLVILLLAIGDFVIGTFIPLESKKPKGFFGYKSEIFNENFGPDFREEETFFSVFAIFFPAATGILAGANISGDLADPQSAIPKGTLLAILITTLVYVGIAVSVGSCVVRDATGNVNDTIVTELTNCTSAACKLNFDFSSCESSPCSYGLMNNFQVMSMVSGFTPLISAGIFSATLSSALASLVSAPKIFQALCKDNIYPAFQMFAKGYGKNNEPLRGYILTFLIALGFILIAELNVIAPIISNFFLASYALINFSVFHASLAKSPGWRPAFKYYNMWISLLGAILCCIVMCVINWWAALLTYVIVLGLYIYVTYKKPDVNWGSSTQALTYLNALQHSIRLSGVEDHVKNFRPQCLVMTGAPNSRPALLHLVHDFTKNVGLMICGHVHMGPRRQAMKEMSIDQAKYQRWLIKNKMKAFYAPVHADDLREGAQYLMQAAGLGRMKPNTLVLGFKKDWLQADMRDVDMYINLFHDAFDIQYGVVVIRLKEGLDISHLQGQEELLSSQEKSPGTKDVVVSVEYSKKSDLDTSKPLSEKPITHKVEEEDGKTATQPLLKKESKGPIVPLNVADQKLLEASTQFQKKQGKNTIDVWWLFDDGGLTLLIPYLLTTKKKWKDCKIRVFIGGKINRIDHDRRAMATLLSKFRIDFSDIMVLGDINTKPKKENIIAFEEIIEPYRLHEDDKEQDIADKMKEDEPWRITDNELELYKTKTYRQIRLNELLKEHSSTANIIVMSLPVARKGAVSSALYMAWLEALSKDLPPILLVRGNHQSVLTFYS
[1]
  binding: binds
[2]
  binding: binds
[3]
  binding: binds

B2: full-length hNKCC1 tagged with flag and YFP, W733C (protein, UniProt P55011 1-1212)
chain: B1 chain with C728F, W733C
[4]
  binding: binds
[5]
  binding: binds
[6]
  binding: binds

B3: full-length hNKCC1 tagged with flag and YFP, A735C (protein, UniProt P55011 1-1212)
chain: B1 chain with C728F, A735C
[7]
  binding: binds
[8]
  binding: binds
[9]
  binding: binds

B4: full-length hNKCC1 tagged with flag and YFP, W732C in the C723S-C724V double mutation (protein, UniProt P55011 1-1212)
chain: B1 chain with C723S, C724V, C728F, W732C
[10]
  binding: binds
